Laboratory results: paper PMC9561260

T1: 2× HA-3× FLAG-Eya1 (UniProt P97767)
T1 sequence: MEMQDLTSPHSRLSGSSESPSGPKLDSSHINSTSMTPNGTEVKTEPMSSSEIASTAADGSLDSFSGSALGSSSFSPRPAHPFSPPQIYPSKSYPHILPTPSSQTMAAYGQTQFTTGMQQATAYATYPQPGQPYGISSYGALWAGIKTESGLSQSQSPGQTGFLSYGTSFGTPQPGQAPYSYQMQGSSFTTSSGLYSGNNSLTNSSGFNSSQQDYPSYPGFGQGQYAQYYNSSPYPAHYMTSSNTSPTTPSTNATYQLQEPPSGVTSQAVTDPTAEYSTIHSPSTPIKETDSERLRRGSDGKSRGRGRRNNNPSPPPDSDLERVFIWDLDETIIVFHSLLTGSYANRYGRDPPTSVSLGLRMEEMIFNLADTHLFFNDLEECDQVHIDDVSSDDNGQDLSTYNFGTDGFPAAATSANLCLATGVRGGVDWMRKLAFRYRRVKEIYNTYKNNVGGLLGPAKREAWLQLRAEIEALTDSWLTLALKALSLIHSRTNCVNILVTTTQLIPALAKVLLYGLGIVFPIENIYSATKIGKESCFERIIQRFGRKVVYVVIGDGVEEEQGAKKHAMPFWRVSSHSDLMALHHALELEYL

B1: MCM5 (protein, UniProt P33992 1-734)
chain: MSGFDDPGIFYSDSFGGDAQADEGQARKSQLQRRFKEFLRQYRVGTDRTGFTFKYRDELKRHYNLGEYWIEVEMEDLASFDEDLADYLYKQPAEHLQLLEEAAKEVADEVTRPRPSGEEVLQDIQVMLKSDASPSSIRSLKSDMMSHLVKIPGIIIAASAVRAKATRISIQCRSCRNTLTNIAMRPGLEGYALPRKCNTDQAGRPKCPLDPYFIMPDKCKCVDFQTLKLQELPDAVPHGEMPRHMQLYCDRYLCDKVVPGNRVTIMGIYSIKKFGLTTSRGRDRVGVGIRSSYIRVLGIQVDTDGSGRSFAGAVSPQEEEEFRRLAALPNVYEVISKSIAPSIFGGTDMKKAIACLLFGGSRKRLPDGLTRRGDINLLMLGDPGTAKSQLLKFVEKCSPIGVYTSGKGSSAAGLTASVMRDPSSRNFIMEGGAMVLADGGVVCIDEFDKMREDDRVAIHEAMEQQTISIAKAGITTTLNSRCSVLAAANSVFGRWDETKGEDNIDFMPTILSRFDMIFIVKDEHNEERDVMLAKHVITLHVSALTQTQAVEGEIDLAKLKKFIAYCRVKCGPRLSAEAAEKLKNRYIIMRSGARQHERDSDRRSSIPITVRQLEAIVRIAEALSKMKLQPFATEADVEEALRLFQVSTLDAALSGTLSGVEGFTSQEDQEMLSRIEKQLKRRFAIGSQVSEHSIIKDFTKQKYPEHAIHKVLQLMLRRGEIQHRMQRKVLYRLK
B2: MCM6 (protein, UniProt Q14566 1-821)
chain: MDLAAAAEPGAGSQHLEVRDEVAEKCQKLFLDFLEEFQSSDGEIKYLQLAEELIRPERNTLVVSFVDLEQFNQQLSTTIQEEFYRVYPYLCRALKTFVKDRKEIPLAKDFYVAFQDLPTRHKIRELTSSRIGLLTRISGQVVRTHPVHPELVSGTFLCLDCQTVIRDVEQQFKYTQPNICRNPVCANRRRFLLDTNKSRFVDFQKVRIQETQAELPRGSIPRSLEVILRAEAVESAQAGDKCDFTGTLIVVPDVSKLSTPGARAETNSRVSGVDGYETEGIRGLRALGVRDLSYRLVFLACCVAPTNPRFGGKELRDEEQTAESIKNQMTVKEWEKVFEMSQDKNLYHNLCTSLFPTIHGNDEVKRGVLLMLFGGVPKTTGEGTSLRGDINVCIVGDPSTAKSQFLKHVEEFSPRAVYTSGKASSAAGLTAAVVRDEESHEFVIEAGALMLADNGVCCIDEFDKMDVRDQVAIHEAMEQQTISITKAGVKATLNARTSILAAANPISGHYDRSKSLKQNINLSAPIMSRFDLFFILVDECNEVTDYAIARRIVDLHSRIEESIDRVYSLDDIRRYLLFARQFKPKISKESEDFIVEQYKHLRQRDGSGVTKSSWRITVRQLESMIRLSEAMARMHCCDEVQPKHVKEAFRLLNKSIIRVETPDVNLDQEEEIQMEVDEGAGGINGHADSPAPVNGINGYNEDINQESAPKASLRLGFSEYCRISNLIVLHLRKVEEEEDESALKRSELVNWYLKEIESEIDSEEELINKKRIIEKVIHRLTHYDHVLIELTQAGLKGSTEGSESYEEDPYLVVNPNYLLED
B3: MCM10 (protein, UniProt Q7L590 1-875)
chain: MDEEEDNLSLLTALLEENESALDCNSEENNFLTRENGEPDAFDELFDADGDGESYTEEADDGETGETRDEKENLATLFGDMEDLTDEEEVPASQSTENRVLPAPAPRREKTNEELQEELRNLQEQMKALQEQLKVTTIKQTASPARLQKSPVEKSPRPPLKERRVQRIQESTCFSAELDVPALPRTKRVARTPKASPPDPKSSSSRMTSAPSQPLQTISRNKPSGITRGQIVGTPGSSGETTQPICVEAFSGLRLRRPRVSSTEMNKKMTGRKLIRLSQIKEKMAREKLEEIDWVTFGVILKKVTPQSVNSGKTFSIWKLNDLRDLTQCVSLFLFGEVHKALWKTEQGTVVGILNANPMKPKDGSEEVCLSIDHPQKVLIMGEALDLGTCKAKKKNGEPCTQTVNLRDCEYCQYHVQAQYKKLSAKRADLQSTFSGGRIPKKFARRGTSLKERLCQDGFYYGGVSSASYAASIAAAVAPKKKIQTTLSNLVVKGTNLIIQETRQKLGIPQKSLSCSEEFKELMDLPTCGARNLKQHLAKATASGIMGSPKPAIKSISASALLKQQKQRMLEMRRRKSEEIQKRFLQSSSEVESPAVPSSSRQPPAQPPRTGSEFPRLEGAPATMTPKLGRGVLEGDDVLFYDESPPPRPKLSALAEAKKLAAITKLRAKGQVLTKTNPNSIKKKQKDPQDILEVKERVEKNTMFSSQAEDELEPARKKRREQLAYLESEEFQKILKAKSKHTGILKEAEAEMQERYFEPLVKKEQMEEKMRNIREVKCRVVTCKTCAYTHFKLLETCVSEQHEYHWHDGVKRFFKCPCGNRSISLDRLPNKHCSNCGLYKWERDGMLKEKTGPKIGGETLLPRGEEHAKFLNSLK
B4: PHF6 (protein, UniProt Q8IWS0 1-365)
chain: MSSSVEQKKGPTRQRKCGFCKSNRDKECGQLLISENQKVAAHHKCMLFSSALVSSHSDNESLGGFSIEDVQKEIKRGTKLMCSLCHCPGATIGCDVKTCHRTYHYHCALHDKAQIREKPSQGIYMVYCRKHKKTAHNSEADLEESFNEHELEPSSPKSKKKSRKGRPRKTNFKGLSEDTRSTSSHGTDEMESSSYRDRSPHRSSPSDTRPKCGFCHVGEEENEARGKLHIFNAKKAAAHYKCMLFSSGTVQLTTTSRAEFGDFDIKTVLQEIKRGKRMKCTLCSQPGATIGCEIKACVKTYHYHCGVQDKAKYIENMSRGIYKLYCKNHSGNDERDEEDEERESKSRGKVEIDQQQLTQQQLNGN
B5: SMC1A (structural maintenance of chromosomes) (protein, UniProt Q14683 1-1233)
chain: MGFLKLIEIENFKSYKGRQIIGPFQRFTAIIGPNGSGKSNLMDAISFVLGEKTSNLRVKTLRDLIHGAPVGKPAANRAFVSMVYSEEGAEDRTFARVIVGGSSEYKINNKVVQLHEYSEELEKLGILIKARNFLVFQGAVESIAMKNPKERTALFEEISRSGELAQEYDKRKKEMVKAEEDTQFNYHRKKNIAAERKEAKQEKEEADRYQRLKDEVVRAQVQLQLFKLYHNEVEIEKLNKELASKNKEIEKDKKRMDKVEDELKEKKKELGKMMREQQQIEKEIKEKDSELNQKRPQYIKAKENTSHKIKKLEAAKKSLQNAQKHYKKRKGDMDELEKEMLSVEKARQEFEERMEEESQSQGRDLTLEENQVKKYHRLKEEASKRAATLAQELEKFNRDQKADQDRLDLEERKKVETEAKIKQKLREIEENQKRIEKLEEYITTSKQSLEEQKKLEGELTEEVEMAKRRIDEINKELNQVMEQLGDARIDRQESSRQQRKAEIMESIKRLYPGSVYGRLIDLCQPTQKKYQIAVTKVLGKNMDAIIVDSEKTGRDCIQYIKEQRGEPETFLPLDYLEVKPTDEKLRELKGAKLVIDVIRYEPPHIKKALQYACGNALVCDNVEDARRIAFGGHQRHKTVALDGTLFQKSGVISGGASDLKAKARRWDEKAVDKLKEKKERLTEELKEQMKAKRKEAELRQVQSQAHGLQMRLKYSQSDLEQTKTRHLALNLQEKSKLESELANFGPRINDIKRIIQSREREMKDLKEKMNQVEDEVFEEFCREIGVRNIREFEEEKVKRQNEIAKKRLEFENQKTRLGIQLDFEKNQLKEDQDKVHMWEQTVKKDENEIEKLKKEEQRHMKIIDETMAQLQDLKNQHLAKKSEVNDKNHEMEEIRKKLGGANKEMTHLQKEVTAIETKLEQKRSDRHNLLQACKMQDIKLPLSKGTMDDISQEEGSSQGEDSVSGSQRISSIYAREALIEIDYGDLCEDLKDAQAEEEIKQEMNTLQQKLNEQQSVLQRIAAPNMKAMEKLESVRDKFQETSDEFEAARKRAKKAKQAFEQIKKERFDRFNACFESVATNIDEIYKALSRNSSAQAFLGPENPEEPYLDGINYNCVAPGKRFRPMDNLSGGEKTVAALALLFAIHSYKPAPFFVLDEIDAALDNTNIGKVANYIKEQSTCNFQAIVISLKEEFYTKAESLIGVYPEQGDCVISKVLTFDLTKYPDANPNPNEQ
B6: SMC6 (protein, UniProt Q96SB8 1-1091)
chain: MAKRKEENFSSPKNAKRPRQEELEDFDKDGDEDECKGTTLTAAEVGIIESIHLKNFMCHSMLGPFKFGSNVNFVVGNNGSGKSAVLTALIVGLGGRAVATNRGSSLKGFVKDGQNSADISITLRNRGDDAFKASVYGNSILIQQHISIDGSRSYKLKSATGSVVSTRKEELIAILDHFNIQVDNPVSVLTQEMSKQFLQSKNEGDKYKFFMKATQLEQMKEDYSYIMETKERTKEQIHQGEERLTELKRQCVEKEERFQSIAGLSTMKTNLESLKHEMAWAVVNEIEKQLNAIRDNIKIGEDRAARLDRKMEEQQVRLNEAEQKYKDIQDKLEKISEETNARAPECMALKADVVAKKRAYNEAEVLYNRSLNEYKALKKDDEQLCKRIEELKKSTDQSLEPERLERQKKISWLKERVKAFQNQENSVNQEIEQFQQAIEKDKEEHGKIKREELDVKHALSYNQRQLKELKDSKTDRLKRFGPNVPALLEAIDDAYRQGHFTYKPVGPLGACIHLRDPELALAIESCLKGLLQAYCCHNHADERVLQALMKRFYLPGTSRPPIIVSEFRNEIYDVRHRAAYHPDFPTVLTALEIDNAVVANSLIDMRGIETVLLIKNNSVARAVMQSQKPPKNCREAFTADGDQVFAGRYYSSENTRPKFLSRDVDSEISDLENEVENKTAQILNLQQHLSALEKDIKHNEELLKRCQLHYKELKMKIRKNISEIRELENIEEHQSVDIATLEDEAQENKSKMKMVEEHMEQQKENMEHLKSLKIEAENKYDAIKFKINQLSELADPLKDELNLADSEVDNQKRGKRHYEEKQKEHLDTLNKKKRELDMKEKELEEKMSQARQICPERIEVEKSASILDKEINRLRQKIQAEHASHGDREEIMRQYQEARETYLDLDSKVRTLKKFIKLLGEIMEHRFKTYQQFRRCLTLRCKLYFDNLLSQRAYCGKMNFDHKNETLSISVQPGEGNKAAFNDMRALSGGERSFSTVCFILSLWSIAESPFRCLDEFDVYMDMVNRRIAMDLILKMADSQRFRQFILLTPQSMSSLPSSKLIRILRMSDPERGQTTLPFRPVTQEEDDDQR

target: T1, 2× HA-3× FLAG-Eya1; assay: affinity purification with mass spectrometry; tandem purification of HF-Eya1 from lysate of stable HEK293 cells: anti-FLAG M2 beads, FLAG peptide elution, then anti-HA agarose; 50 mM Tris-HCl pH 7.5, 150 mM NaCl, 0.1% Nonidet P-40, 4°C; 12 bands (B1-B12) cut from a silver-stained gel

binding, binds:
B1
B2
B3
B4
B5
B6

These are yes or no findings as the source states them, for the method shown. In cells and extracts the contact can be indirect. A yes stands for co-enrichment or nearness to the bait. Other partners may have been found. Tags and fused reporters may be left off the sequences shown.
